Laboratory results as given in the supplement of paper PMC12067093, “Discovery and optimisation of a covalent ligand for TRIM25 and its application to targeted protein ubiquitination” (Chemical Science, 2025).
Some of the results follow.

Sequences of proteins named here, by UniProt entry; tags and fusion partners are left off. A change or cut given only in a name is not applied to a line headed by its entry.
UniProt O95376: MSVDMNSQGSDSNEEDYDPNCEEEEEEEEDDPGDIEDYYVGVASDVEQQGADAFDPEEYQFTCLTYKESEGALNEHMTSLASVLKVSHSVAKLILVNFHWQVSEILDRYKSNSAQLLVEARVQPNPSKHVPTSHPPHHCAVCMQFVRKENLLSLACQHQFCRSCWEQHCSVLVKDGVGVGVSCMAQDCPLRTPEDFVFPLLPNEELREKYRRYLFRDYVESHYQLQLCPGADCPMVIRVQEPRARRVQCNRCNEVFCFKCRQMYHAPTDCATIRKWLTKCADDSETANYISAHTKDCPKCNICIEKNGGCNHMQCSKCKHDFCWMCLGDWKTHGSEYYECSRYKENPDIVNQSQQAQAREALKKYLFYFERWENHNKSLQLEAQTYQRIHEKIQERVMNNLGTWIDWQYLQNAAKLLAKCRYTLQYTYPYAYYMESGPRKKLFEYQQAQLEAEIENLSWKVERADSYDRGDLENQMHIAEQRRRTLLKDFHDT
UniProt O60306: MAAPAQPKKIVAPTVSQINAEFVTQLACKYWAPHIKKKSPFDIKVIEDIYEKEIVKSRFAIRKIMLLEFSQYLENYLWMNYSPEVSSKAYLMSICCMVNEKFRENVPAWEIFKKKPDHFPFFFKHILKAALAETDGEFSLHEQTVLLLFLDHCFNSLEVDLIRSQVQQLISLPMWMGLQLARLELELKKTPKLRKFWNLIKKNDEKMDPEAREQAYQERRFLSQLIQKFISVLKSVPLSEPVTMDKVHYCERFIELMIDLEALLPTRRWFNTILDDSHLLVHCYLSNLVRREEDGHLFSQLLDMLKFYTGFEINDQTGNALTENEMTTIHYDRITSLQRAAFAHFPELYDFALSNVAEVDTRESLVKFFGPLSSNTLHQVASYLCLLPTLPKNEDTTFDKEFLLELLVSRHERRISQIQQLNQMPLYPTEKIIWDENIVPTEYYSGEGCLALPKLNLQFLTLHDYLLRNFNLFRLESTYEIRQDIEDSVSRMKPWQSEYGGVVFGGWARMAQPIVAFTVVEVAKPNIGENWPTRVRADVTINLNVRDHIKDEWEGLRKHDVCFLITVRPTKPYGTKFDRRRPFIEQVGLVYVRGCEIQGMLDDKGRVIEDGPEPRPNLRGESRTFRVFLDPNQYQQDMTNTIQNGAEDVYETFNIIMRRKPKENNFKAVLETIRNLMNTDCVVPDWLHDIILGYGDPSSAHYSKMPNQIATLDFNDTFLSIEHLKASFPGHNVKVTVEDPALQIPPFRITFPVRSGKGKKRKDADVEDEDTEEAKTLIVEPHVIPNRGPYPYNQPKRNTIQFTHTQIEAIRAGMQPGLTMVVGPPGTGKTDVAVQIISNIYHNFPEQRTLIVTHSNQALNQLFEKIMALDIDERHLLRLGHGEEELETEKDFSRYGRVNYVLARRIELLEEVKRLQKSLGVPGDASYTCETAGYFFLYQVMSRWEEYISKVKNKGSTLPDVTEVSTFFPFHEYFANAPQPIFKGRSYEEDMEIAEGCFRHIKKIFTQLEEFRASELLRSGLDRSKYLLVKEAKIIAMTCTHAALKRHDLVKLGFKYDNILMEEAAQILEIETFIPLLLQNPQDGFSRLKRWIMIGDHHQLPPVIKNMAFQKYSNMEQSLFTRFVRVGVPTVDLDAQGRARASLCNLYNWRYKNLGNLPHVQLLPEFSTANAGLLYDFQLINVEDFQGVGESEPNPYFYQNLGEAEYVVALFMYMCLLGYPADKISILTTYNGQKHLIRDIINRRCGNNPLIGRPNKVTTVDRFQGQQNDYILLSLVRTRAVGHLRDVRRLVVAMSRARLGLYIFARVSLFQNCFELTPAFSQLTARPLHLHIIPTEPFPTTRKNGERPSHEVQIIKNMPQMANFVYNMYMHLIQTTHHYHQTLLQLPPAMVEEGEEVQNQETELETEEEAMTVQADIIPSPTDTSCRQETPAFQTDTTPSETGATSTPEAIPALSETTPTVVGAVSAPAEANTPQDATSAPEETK
UniProt Q9UNA1: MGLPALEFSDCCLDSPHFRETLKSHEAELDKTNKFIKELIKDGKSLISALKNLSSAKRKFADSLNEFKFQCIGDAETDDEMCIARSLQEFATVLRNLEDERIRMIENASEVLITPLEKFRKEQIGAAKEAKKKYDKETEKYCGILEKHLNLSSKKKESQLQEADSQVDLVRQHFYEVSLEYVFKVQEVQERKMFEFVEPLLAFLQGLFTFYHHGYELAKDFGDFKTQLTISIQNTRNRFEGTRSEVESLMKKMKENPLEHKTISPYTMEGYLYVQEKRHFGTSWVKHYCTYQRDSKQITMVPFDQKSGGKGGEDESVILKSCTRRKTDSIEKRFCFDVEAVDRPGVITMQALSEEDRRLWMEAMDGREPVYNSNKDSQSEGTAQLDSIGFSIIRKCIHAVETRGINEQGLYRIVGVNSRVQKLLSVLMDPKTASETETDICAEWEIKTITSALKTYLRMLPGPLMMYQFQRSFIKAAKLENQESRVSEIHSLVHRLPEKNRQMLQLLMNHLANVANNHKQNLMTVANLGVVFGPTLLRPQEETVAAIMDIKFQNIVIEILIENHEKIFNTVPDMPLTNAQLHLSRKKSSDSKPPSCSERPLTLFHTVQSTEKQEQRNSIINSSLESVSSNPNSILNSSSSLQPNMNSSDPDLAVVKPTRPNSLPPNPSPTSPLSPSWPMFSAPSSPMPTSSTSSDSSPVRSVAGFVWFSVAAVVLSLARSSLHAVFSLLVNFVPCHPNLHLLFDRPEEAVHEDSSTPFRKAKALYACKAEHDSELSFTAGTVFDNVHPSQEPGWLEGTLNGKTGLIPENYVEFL
UniProt Q92888: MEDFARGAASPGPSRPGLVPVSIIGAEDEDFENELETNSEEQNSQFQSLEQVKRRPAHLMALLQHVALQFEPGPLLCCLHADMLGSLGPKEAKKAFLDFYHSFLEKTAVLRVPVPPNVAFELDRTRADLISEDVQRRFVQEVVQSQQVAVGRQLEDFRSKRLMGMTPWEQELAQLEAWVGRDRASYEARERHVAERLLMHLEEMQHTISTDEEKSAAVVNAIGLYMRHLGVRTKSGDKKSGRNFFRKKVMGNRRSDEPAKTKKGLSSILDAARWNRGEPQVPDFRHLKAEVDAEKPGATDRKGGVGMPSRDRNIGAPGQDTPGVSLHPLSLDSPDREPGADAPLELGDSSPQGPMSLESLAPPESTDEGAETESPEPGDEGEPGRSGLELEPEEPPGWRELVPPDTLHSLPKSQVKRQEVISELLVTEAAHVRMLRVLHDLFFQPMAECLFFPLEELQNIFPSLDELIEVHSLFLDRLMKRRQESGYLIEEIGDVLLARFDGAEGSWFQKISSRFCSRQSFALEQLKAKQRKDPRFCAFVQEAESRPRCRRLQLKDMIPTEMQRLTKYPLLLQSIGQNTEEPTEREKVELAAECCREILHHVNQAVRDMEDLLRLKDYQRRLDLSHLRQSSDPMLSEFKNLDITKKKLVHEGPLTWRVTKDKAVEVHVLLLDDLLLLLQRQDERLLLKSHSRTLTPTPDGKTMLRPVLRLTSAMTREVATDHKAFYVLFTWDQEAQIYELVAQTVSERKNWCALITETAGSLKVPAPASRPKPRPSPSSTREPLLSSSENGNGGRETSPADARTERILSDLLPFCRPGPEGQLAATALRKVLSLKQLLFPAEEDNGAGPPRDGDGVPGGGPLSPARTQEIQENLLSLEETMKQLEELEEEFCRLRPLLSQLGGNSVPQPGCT
UniProt Q6NXE6: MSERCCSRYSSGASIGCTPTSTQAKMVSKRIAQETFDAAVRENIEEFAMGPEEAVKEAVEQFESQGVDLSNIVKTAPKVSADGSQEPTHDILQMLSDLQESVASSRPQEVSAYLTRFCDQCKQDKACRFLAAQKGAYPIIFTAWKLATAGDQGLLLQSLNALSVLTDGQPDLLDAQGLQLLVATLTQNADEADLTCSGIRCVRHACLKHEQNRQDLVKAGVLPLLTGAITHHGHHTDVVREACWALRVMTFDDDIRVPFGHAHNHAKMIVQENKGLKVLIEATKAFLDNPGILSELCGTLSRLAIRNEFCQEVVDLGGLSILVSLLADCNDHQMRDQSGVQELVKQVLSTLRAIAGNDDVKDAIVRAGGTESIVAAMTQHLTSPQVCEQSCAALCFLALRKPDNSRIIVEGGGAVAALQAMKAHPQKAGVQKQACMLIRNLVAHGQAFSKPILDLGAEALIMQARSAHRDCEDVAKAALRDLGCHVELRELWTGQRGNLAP
UniProt Q8IUR7, whole entry, looked up: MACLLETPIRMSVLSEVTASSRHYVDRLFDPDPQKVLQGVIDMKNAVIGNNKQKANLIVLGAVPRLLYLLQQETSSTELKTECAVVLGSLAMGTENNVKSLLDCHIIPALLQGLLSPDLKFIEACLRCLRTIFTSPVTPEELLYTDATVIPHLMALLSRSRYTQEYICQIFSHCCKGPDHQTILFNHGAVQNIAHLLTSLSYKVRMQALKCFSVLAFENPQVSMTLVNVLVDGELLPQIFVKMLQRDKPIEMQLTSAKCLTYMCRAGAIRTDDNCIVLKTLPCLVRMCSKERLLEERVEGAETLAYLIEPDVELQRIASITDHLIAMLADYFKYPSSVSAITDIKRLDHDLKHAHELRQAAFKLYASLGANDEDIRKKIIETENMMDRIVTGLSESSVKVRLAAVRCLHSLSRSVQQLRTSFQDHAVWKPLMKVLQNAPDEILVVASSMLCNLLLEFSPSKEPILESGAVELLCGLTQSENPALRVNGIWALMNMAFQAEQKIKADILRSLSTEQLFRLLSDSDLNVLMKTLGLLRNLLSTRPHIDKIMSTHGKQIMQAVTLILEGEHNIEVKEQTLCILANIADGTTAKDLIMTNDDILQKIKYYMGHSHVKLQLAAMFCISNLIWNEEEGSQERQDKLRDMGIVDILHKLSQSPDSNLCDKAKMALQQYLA
UniProt Q9NZN5: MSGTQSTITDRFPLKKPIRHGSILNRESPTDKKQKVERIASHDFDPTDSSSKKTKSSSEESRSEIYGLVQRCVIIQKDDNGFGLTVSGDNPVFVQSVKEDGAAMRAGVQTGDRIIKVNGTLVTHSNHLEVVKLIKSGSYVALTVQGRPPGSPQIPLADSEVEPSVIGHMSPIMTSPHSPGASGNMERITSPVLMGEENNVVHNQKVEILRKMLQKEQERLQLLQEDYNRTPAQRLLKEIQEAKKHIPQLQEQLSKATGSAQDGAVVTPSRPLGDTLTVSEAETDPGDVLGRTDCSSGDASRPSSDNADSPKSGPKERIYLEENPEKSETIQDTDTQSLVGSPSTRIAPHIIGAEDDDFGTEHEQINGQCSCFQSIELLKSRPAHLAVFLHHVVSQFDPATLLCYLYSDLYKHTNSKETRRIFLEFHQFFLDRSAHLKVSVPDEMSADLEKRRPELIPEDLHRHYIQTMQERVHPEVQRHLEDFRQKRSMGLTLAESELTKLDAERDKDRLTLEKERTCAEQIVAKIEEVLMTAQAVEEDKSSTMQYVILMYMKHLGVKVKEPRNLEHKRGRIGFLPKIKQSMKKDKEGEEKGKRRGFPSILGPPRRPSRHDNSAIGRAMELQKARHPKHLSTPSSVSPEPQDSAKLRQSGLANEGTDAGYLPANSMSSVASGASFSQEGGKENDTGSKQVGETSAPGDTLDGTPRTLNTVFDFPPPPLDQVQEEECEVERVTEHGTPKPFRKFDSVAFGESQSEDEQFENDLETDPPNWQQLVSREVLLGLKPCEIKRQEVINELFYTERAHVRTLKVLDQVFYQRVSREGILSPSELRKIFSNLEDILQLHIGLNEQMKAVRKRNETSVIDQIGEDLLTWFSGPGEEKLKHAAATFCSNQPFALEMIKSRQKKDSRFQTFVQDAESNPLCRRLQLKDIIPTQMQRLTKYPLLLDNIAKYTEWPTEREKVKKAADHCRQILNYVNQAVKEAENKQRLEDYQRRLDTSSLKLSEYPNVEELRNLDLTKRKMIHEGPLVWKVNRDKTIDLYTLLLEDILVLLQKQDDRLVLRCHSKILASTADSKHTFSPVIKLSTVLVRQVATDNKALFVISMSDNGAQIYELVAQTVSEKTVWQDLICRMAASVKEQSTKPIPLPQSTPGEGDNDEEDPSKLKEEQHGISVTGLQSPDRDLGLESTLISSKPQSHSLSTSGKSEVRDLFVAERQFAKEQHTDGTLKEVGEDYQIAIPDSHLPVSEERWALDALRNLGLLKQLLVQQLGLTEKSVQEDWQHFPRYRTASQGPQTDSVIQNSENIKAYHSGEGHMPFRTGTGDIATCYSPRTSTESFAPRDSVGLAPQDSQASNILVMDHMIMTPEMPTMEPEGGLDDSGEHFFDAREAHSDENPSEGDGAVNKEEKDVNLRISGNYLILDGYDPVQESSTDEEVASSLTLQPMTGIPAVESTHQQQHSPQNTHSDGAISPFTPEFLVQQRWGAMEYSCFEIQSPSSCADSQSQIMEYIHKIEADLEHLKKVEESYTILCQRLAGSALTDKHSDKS

These targets were tested with Cc1cc(ccc1-c1ccccc1)C(=O)N1CCCN(CC1)C(=O)CCl [compound 10] (assay: probe-labelled cysteine peptide fold change vs DMSO (competition) (log2 fold change); higher = less target engagement (more negative = stronger competition)). Details: 10 µM; THP-1; incubation time: 4 h.
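Note: competitive profiling in live THP-1 cells: cysteine peptides tagged with an iodoacetamide desthiobiotin (IA-DTB) probe, intensity after compound treatment relative to DMSO-treated cells.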

Target | probe-labelled cysteine peptide fold change
ARIH2_O95376_270_QMYHAPTDCATIR (UniProt O95376) | 0.104
ARHGAP4_P98171_840_QVVGAGLQTAGESGSSPEGLLASELVHRPEPCTSPEAMGPSGHR (UniProt P98171) | -0.252
ARIH1_Q9Y4X5_357_DGGCNHMVCR (UniProt Q9Y4X5) | -0.0325
AQR_O60306_28_KIVAPTVSQINAEFVTQLACK (UniProt O60306) | 0.0774
ARHGAP26_Q9UNA1_142_YCGILEK (UniProt Q9UNA1) | -0.128
ARIH2_O95376_323_HDFCWMCLGDWK (UniProt O95376) | -0.12
ARHGEF11_O15085_793_LFPNLPELIEIHNSWCEAMK (UniProt O15085) | 0.178
ARHGAP4_P98171_855_CLVPASPEQHVEVDK (UniProt P98171) | -0.453
ARHGAP4_P98171_102_EPSLLSPLHCWAVLLQHTR (UniProt P98171) | 0.0464
ARHGEF1_Q92888_815_ILSDLLPFCRPGPEGQLAATALRK (UniProt Q92888) | -0.137
ARMC6_Q6NXE6_297_AFLDNPGILSELCGTLSR (UniProt Q6NXE6) | 0.144
ARMC8_Q8IUR7_3_ACLLETPIR (UniProt Q8IUR7) | 0.0508
ARID4A_P29374_211_DQCLVR (UniProt P29374) | -0.152
ARHGEF12_Q9NZN5_1128_TVWQDLICR (UniProt Q9NZN5) | 0.136
ARPC1B_O15143_227_VAWVSHDSTVCLADADK (UniProt O15143) | 0.251
ARHGAP30_Q7Z6I6_407_CAGVHISDPYNVNLPLHITSILSVPPNIISNVSLAR (UniProt Q7Z6I6) | -0.281

Part of the list above, set out differently.
Target,probe-labelled cysteine peptide fold change
ARHGAP4_P98171_102_EPSLLSPLHCWAVLLQHTR (UniProt P98171),0.0464
ARHGEF1_Q92888_815_ILSDLLPFCRPGPEGQLAATALRK (UniProt Q92888),-0.137
